Laboratory results as given in article PMC10217356.
No constants are given. Whether binding was seen depends on the method and setting. In cells and extracts the contact can be indirect. A yes stands for co-enrichment or nearness to the bait. Other partners may have been found. Where a sequence is shown, tags or fusion partners need not be part of it.

The chains behind the UniProt entries cited, without tags or fusion partners. Where a name states a change or a piece, a line headed by the entry shows the natural chain unless it says otherwise.
UniProt Q31LN3: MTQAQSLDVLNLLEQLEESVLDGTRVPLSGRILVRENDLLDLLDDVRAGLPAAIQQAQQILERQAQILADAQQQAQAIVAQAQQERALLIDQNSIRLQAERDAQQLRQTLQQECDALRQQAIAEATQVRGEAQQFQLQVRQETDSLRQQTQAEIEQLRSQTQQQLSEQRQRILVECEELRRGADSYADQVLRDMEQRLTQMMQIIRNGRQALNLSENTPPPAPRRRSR
UniProt Q31N73: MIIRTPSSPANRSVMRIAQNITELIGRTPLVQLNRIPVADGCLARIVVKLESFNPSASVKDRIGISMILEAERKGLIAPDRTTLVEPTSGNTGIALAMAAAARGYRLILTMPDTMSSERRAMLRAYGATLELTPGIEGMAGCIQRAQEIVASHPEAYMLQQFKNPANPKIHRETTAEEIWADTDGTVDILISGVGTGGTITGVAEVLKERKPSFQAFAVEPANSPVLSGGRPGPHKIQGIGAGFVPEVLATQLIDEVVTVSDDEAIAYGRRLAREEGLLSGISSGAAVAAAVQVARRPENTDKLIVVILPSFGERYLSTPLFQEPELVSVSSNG
UniProt Q31LV5: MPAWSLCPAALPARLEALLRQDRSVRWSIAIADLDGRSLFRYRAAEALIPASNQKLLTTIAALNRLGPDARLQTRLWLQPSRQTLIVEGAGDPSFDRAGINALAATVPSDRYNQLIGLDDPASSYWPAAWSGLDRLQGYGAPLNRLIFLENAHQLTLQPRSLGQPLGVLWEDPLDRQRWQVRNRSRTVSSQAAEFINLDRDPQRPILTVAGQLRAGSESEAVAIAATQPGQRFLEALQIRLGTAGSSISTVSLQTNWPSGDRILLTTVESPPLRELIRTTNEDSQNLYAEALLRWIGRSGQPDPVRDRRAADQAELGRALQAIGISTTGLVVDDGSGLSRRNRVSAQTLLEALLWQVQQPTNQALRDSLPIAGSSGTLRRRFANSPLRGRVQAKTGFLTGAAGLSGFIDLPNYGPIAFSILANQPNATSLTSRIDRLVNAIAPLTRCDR
UniProt Q55024: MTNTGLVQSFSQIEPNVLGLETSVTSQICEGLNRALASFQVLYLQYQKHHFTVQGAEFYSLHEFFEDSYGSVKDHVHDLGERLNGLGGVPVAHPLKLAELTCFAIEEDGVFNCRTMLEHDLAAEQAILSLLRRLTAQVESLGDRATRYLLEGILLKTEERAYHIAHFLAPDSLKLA
UniProt Q93AK0: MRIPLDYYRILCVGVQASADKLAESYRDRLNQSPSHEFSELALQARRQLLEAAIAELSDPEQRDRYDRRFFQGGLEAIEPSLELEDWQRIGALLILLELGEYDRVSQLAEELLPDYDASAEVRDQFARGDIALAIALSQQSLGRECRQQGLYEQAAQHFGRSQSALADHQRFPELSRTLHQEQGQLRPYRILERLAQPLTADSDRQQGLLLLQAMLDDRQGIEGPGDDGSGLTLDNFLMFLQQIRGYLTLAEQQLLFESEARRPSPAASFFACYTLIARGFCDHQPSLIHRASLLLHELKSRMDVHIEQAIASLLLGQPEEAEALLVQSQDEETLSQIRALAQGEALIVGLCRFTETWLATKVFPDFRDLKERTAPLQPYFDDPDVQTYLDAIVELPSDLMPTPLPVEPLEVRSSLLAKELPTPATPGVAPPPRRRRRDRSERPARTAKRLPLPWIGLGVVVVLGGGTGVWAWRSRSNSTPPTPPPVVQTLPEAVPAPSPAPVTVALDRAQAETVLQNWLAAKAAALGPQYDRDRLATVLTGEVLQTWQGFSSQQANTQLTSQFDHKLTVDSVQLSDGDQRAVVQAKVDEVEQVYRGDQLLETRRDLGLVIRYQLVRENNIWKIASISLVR
UniProt Q31M73: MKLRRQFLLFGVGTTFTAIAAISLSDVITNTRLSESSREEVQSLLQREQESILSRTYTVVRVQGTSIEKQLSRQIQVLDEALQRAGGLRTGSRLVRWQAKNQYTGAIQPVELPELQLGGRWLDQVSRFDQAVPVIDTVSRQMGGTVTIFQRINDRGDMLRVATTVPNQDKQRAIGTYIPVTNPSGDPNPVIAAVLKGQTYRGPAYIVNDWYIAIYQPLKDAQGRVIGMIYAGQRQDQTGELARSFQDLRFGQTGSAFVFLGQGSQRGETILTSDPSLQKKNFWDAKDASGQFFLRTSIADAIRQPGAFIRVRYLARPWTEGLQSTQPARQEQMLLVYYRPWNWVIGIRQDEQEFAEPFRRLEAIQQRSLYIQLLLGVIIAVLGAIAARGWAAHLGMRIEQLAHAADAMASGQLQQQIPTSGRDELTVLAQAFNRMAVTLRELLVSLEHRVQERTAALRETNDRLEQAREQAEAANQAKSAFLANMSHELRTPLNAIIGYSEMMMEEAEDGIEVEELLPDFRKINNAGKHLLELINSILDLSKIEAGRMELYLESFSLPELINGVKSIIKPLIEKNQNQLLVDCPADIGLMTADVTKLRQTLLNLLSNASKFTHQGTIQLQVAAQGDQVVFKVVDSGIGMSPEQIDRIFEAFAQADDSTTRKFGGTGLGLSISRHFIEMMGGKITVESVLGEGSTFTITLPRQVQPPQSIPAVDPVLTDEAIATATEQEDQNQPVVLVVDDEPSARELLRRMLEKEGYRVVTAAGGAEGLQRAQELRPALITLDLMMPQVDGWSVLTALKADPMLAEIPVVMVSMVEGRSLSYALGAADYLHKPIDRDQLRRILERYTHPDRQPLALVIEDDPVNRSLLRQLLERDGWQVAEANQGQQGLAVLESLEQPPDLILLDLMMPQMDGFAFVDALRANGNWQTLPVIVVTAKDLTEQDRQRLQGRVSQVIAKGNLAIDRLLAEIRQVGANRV
UniProt Q31RR7: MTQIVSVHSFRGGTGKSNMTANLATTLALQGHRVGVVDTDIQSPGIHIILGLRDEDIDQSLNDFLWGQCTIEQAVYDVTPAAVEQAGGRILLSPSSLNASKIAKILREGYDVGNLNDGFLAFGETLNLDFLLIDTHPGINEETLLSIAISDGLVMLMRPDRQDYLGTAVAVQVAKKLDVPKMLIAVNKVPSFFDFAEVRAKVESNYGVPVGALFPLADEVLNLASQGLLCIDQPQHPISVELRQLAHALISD
UniProt Q31PU3: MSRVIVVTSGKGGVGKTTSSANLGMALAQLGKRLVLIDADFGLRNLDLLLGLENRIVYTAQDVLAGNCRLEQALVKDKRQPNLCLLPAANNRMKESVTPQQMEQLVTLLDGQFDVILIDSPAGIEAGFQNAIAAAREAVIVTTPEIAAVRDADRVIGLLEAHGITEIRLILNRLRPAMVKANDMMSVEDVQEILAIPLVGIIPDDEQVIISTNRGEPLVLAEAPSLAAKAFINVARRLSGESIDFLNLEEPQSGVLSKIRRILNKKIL
UniProt Q31K18: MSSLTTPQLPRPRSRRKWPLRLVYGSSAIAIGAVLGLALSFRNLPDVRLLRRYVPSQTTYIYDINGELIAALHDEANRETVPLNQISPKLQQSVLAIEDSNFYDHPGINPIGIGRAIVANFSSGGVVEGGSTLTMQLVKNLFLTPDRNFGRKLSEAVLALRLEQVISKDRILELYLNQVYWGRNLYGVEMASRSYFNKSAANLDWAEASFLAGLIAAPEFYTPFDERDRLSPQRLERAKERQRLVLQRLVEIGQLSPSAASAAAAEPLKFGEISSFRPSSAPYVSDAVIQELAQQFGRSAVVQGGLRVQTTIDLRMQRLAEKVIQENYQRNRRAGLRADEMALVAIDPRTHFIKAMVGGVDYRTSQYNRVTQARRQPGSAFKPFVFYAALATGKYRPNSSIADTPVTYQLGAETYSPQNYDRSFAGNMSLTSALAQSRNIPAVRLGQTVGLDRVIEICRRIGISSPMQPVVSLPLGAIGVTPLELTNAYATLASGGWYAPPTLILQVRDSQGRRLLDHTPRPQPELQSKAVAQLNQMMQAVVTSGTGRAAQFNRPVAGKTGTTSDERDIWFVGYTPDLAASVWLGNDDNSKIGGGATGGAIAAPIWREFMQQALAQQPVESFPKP
UniProt Q31KE5: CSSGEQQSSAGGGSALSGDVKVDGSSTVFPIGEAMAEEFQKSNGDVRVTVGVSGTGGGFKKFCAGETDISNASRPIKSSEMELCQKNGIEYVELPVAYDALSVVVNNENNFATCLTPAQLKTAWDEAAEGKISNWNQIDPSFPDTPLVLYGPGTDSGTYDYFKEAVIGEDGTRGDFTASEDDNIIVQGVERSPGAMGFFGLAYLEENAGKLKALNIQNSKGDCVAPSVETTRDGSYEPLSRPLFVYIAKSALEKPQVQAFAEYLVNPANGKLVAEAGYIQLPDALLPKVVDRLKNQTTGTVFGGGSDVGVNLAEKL
UniProt Q31MB0: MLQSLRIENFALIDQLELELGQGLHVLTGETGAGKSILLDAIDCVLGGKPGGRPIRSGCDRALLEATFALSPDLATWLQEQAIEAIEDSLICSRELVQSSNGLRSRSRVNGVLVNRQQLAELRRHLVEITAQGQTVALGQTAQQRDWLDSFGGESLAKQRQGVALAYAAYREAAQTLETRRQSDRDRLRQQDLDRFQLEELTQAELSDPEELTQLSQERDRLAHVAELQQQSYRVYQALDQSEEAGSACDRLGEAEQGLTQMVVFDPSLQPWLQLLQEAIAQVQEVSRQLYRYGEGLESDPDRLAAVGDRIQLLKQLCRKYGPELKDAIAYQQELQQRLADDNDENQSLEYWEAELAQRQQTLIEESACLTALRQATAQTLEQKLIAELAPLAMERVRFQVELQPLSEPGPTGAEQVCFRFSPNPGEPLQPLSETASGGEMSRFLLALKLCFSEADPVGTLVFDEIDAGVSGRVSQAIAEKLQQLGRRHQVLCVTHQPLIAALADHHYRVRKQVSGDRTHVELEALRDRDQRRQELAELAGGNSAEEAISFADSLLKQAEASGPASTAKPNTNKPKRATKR
UniProt Q31RU6: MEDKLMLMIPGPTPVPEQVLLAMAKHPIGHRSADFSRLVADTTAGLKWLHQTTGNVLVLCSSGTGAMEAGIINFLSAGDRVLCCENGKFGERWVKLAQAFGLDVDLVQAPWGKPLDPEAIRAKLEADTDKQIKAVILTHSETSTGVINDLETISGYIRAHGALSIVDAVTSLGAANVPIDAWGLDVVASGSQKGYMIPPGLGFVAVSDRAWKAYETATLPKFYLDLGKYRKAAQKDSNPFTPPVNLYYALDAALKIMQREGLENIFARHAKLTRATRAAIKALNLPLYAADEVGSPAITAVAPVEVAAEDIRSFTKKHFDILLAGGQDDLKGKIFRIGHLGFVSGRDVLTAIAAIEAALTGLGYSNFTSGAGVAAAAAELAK
UniProt Q31N35: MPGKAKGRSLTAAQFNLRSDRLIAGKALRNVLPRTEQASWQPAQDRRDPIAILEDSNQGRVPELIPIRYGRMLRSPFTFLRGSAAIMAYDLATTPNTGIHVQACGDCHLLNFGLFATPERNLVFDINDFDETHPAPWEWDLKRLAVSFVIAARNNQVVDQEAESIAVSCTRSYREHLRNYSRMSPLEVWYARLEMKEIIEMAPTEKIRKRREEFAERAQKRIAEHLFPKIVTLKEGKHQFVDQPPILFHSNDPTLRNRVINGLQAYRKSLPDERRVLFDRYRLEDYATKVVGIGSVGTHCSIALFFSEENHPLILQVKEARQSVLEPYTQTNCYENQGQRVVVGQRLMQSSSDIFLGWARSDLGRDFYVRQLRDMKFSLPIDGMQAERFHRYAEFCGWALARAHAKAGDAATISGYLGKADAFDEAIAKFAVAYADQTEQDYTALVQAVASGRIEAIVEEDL
UniProt Q31PH9: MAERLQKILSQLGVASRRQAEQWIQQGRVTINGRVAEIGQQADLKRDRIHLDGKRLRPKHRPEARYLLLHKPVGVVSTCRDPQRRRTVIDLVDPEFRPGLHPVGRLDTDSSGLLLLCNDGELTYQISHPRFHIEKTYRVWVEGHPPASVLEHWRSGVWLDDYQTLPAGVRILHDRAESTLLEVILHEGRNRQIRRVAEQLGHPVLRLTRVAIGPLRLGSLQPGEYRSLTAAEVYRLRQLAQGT

The substances below were run against T1, FtsZ-GFP (Synechococcus elongatus PCC7942) (UniProt O85785) (assay: affinity purification with mass spectrometry; FtsZ-GFP as bait; total protein extracts (4 mg/IP) of S. elongatus cells of the exponential, stationary and late stationary phase; anti-GFP antibody-coupled magnetic beads, trypsin digest in column, LC-MS/MS; non-antibody and GFP negative controls; three repetitions).
T1 sequence: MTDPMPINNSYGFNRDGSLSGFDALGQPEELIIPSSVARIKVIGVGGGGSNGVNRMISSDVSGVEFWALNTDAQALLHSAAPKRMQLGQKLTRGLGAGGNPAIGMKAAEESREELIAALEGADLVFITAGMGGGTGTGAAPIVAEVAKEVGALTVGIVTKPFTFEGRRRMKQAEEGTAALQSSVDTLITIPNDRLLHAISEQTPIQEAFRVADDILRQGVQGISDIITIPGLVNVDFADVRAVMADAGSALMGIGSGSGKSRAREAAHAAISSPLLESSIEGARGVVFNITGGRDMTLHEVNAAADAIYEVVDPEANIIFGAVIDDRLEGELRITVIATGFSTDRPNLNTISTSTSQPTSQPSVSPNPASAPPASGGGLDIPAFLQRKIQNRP

| binding | Substance |
| --- | --- |
| binds | CDV3 (from UniProt Q31LN3) |
| binds | Cystein synthase (from UniProt Q31N73) |
| binds | D-Ala-D-Ala carboxypeptidase (from UniProt Q31LV5) |
| binds | DNA protect. during starvation (from UniProt Q55024) |
| binds | Ftn2 (from UniProt Q93AK0) |
| binds | His kinase (from UniProt Q31M73) |
| binds | MinD2 (from UniProt Q31RR7) |
| binds | MinD (from UniProt Q31PU3) |
| binds | Penicillin-binding prot 1A (from UniProt Q31K18) |
| binds | Phosphate binding protein (from UniProt Q31KE5) |
| binds | RecN DNA repair (from UniProt Q31MB0) |
| binds | Ser-glyoxylate transaminase (from UniProt Q31RU6) |
| binds | Unchar. prot (from UniProt Q31N35) |
| binds | rib. pseudouridine synth (from UniProt Q31PH9) |
